Patent publication US12139488B2, “Pyrido[3,2-d]pyrimidine compounds uses thereof for treating a proliferative disease” (Universite de Montreal, priority 2021, dated 2024)
Read-outs that look alike come from different tables or passages of the source. The structures given here were assigned with low confidence; some may be wrong.

The chains behind the UniProt entries cited, without tags or fusion partners.
UniProt P15056, whole entry: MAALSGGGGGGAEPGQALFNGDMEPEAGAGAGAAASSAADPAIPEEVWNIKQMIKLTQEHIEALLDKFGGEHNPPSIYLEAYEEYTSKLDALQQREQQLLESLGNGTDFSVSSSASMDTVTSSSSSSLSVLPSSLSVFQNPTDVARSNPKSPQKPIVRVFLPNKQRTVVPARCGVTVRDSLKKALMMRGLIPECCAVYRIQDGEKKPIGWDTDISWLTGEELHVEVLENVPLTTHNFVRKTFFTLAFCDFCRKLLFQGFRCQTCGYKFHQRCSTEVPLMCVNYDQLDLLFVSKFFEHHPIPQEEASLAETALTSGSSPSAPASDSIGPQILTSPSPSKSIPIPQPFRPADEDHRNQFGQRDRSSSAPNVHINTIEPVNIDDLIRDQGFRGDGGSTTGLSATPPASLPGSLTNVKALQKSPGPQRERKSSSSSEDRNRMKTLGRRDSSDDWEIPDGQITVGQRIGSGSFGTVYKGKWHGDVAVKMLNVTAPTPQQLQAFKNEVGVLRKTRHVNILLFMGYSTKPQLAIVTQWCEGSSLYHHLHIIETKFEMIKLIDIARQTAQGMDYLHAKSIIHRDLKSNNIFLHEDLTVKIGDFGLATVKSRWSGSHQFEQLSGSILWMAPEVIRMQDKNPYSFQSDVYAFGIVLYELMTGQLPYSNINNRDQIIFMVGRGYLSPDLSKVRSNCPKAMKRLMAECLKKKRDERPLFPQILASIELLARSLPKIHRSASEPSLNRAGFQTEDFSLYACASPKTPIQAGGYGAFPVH
UniProt P04049, whole entry: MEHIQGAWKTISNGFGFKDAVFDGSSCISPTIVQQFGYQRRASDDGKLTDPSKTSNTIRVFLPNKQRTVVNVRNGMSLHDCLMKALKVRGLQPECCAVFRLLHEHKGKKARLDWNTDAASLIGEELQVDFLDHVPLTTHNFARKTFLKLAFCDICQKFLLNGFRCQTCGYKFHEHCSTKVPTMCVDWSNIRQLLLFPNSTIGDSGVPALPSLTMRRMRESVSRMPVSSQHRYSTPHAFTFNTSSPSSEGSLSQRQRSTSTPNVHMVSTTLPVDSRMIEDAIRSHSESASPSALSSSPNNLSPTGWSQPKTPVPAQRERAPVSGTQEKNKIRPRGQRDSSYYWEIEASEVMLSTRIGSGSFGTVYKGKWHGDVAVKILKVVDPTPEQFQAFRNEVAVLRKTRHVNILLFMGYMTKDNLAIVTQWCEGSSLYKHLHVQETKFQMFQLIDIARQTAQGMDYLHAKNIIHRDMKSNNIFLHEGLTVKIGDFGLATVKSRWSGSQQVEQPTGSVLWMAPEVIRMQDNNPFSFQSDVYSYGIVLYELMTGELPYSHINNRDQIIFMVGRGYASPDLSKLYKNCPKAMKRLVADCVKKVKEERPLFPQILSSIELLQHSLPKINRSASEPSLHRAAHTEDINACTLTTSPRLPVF

Key:
[1] = system: pERK in HCT-116 cells (KRAS G13D); experiment: Phospho-ERK inhibition (AlphaLISA SureFire Ultra p-ERK 1/2), HCT116
Experimental: All cancer cell lines (A375, A101D, A2058, RKO, HT29 SK-MEL 30, IPC298, HepG2, HCT-116, Lovo, SWV620, SW480, NCI-H358, NCI-H2122, Calu-6, NCIH2087, NCIH1755, NCIH1666 and Mewo) were obtained from ATCC and cultured in RPMI-1640 medium (Gibco) supplemented with 5% heat inactivated fetal bovine serum (FBS, Wisent) at 37° C. under 5% CO2. Cells were maintained in T175 flasks (Greiner). They were passaged by removing the culture medium, washing once in 10 mL of room temperature Phosphate Buffered Saline (PBS; Wisent) and incubating at 37° C. with 2 mL of 0.05% Trypsin (Thermo-Fisher). Trypsin was then inactivated by adding complete growth medium and the cells were then replated in a T175 culture dish at the appropriate dilution. All cell lines were routinely tested for mycoplasma contamination. Tissue type and mutational status of each cell line can be found in Table B.
AlphaLISA® SureFire® Ultra™ p-ERK 1/2 (Thr202/Tyr204) analysis was conducted on cells plated in 100 μL of complete RPMI-1640 growth medium in 96-well flat-bottomed transparent dishes (Costar) at a density indicated in Table C. Cells were maintained overnight at 37° C. under 5% CO2 before treatment with compounds' dilution series for one hour. The cell density in cells/cm^2 corresponds to cell number divided by the area of one well of a 96-well plate ([…]). […]
After treatment, media was removed and cells were lysed in 50 μL of 1× AlphaScreen Ultra Lysis Buffer (Perkin Elmer). […] After completion of the reactions, the signals were recorded on an EnVision plate reader (Perkin Elmer) using built in AlphaLISA® settings.
The effect of each compound dilution on the pERK signal was expressed in % inhibition and calculated as follows. […]
The ability of each compound to inhibit pERK signal was expressed as an IC50 value obtained by plotting the inhibition values for each data point of a dilution series and fitting the obtained curves using a log(agonist) versus response-variable slope (four parameters) function using GraphPadPrism (V7.0) or Dotmatics Screening Ultra platform. […]

BRAF = BRAF (Homo sapiens (Human), UniProt P15056); experiment: BRAF kinase activity assay (ADP-Glo); conditions: read-out: Kinase IC50 (nM), BRAF biochemical kinase assay
CRAF = CRAF (Homo sapiens, UniProt P04049); experiment: CRAF kinase activity assay (ADP-Glo); conditions: read-out: Kinase IC50 (nM), CRAF biochemical kinase assay

IC50 ([1]; read-out: HCT116 pERK IC50, class symbol) | IC50 (BRAF) | IC50 (CRAF) | HCT116 pERK % Ymin (lowest value of the IC50 curve) ([1]; Ymin above −20% = minimal or no paradoxical activation) | IC50 ([1]; read-out: HCT116 pERK IC50) | SMILES
< 500 nM |  |  |  |  | O=S(=O)(Nc1ccc(F)c(Nc2ncnc3ccc(-c4cncs4)nc23)c1F)c1cccc(Cl)c1Cl
 | < 1 nM | < 10 nM | −3% | < 500 nM | O=S(=O)(Nc1ccc(F)c(Nc2ncnc3ccc(-n4cnc5c(N6CCN(CCO)CC6)cccc54)nc23)c1F)c1cccc(Cl)c1Cl [586]
